The text below walks through data of the supplement of paper PMC12067093, “Discovery and optimisation of a covalent ligand for TRIM25 and its application to targeted protein ubiquitination” (Chemical Science, 2025).

Sequences of proteins named here, by UniProt entry; tags and fusion partners are left off. A change or cut given only in a name is not applied to a line headed by its entry.
UniProt Q01469, whole entry, looked up: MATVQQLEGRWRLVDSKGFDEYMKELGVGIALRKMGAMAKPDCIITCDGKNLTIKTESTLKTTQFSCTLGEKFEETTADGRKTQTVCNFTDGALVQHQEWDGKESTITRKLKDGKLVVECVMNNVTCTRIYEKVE
UniProt Q9BS26: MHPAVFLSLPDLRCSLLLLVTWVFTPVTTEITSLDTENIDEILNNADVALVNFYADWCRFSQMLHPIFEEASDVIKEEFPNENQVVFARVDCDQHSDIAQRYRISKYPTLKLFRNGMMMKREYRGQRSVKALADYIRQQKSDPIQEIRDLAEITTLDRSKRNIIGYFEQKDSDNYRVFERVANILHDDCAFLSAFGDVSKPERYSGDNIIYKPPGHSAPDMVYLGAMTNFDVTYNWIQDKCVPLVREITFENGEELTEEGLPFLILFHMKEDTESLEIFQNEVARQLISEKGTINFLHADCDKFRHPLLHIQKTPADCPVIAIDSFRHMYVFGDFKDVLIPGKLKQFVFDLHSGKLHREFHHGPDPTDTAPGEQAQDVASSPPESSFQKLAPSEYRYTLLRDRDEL
UniProt P38117: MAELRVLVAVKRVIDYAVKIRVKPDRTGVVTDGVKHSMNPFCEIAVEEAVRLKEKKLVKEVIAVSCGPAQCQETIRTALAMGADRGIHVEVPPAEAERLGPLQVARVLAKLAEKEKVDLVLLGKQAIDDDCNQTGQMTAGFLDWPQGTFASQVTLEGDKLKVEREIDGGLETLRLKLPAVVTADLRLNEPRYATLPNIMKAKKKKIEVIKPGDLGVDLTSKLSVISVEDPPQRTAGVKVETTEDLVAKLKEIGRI
UniProt P10768: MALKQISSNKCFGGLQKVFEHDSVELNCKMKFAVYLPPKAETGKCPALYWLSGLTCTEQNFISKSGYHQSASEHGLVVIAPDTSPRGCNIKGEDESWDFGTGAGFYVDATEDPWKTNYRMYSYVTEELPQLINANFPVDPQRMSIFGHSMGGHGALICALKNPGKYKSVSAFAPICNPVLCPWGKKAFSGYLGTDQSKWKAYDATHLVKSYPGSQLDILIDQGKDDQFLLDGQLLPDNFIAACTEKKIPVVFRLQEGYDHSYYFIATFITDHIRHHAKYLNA
UniProt Q96CS3: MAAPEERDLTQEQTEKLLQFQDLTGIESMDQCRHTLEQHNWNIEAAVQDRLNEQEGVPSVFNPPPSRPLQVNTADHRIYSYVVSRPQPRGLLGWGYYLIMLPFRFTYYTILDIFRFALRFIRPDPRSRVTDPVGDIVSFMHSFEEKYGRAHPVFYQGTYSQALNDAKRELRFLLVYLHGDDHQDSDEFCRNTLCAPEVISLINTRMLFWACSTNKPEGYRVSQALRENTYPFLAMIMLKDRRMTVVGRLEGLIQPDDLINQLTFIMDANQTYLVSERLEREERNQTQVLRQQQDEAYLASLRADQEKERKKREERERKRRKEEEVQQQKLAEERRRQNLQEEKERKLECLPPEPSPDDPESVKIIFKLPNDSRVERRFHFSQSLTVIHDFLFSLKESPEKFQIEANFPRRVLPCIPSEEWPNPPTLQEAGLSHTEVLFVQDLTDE
UniProt Q96EK7: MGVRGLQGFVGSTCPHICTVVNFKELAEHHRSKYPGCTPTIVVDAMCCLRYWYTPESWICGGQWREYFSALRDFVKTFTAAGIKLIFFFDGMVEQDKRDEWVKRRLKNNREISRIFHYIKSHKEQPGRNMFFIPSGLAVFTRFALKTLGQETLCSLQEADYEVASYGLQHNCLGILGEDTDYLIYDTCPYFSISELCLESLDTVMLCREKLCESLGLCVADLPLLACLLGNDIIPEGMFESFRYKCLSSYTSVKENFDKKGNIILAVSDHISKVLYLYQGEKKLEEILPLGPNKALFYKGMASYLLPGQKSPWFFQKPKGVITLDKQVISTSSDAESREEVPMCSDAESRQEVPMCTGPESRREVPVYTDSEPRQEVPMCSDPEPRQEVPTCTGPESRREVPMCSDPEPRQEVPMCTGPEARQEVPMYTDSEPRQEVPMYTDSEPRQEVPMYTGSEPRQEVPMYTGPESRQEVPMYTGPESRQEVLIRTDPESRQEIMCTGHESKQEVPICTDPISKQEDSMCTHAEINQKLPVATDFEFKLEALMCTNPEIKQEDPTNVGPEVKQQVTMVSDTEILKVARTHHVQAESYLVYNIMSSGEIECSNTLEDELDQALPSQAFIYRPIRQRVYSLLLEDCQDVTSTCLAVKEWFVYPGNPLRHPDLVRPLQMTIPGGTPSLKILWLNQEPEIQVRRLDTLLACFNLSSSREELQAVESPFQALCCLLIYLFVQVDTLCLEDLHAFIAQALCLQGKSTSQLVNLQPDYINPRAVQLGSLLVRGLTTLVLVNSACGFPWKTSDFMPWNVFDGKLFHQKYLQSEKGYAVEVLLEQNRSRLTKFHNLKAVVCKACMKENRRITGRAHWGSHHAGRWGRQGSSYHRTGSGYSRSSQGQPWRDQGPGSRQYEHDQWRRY
UniProt Q96KP1: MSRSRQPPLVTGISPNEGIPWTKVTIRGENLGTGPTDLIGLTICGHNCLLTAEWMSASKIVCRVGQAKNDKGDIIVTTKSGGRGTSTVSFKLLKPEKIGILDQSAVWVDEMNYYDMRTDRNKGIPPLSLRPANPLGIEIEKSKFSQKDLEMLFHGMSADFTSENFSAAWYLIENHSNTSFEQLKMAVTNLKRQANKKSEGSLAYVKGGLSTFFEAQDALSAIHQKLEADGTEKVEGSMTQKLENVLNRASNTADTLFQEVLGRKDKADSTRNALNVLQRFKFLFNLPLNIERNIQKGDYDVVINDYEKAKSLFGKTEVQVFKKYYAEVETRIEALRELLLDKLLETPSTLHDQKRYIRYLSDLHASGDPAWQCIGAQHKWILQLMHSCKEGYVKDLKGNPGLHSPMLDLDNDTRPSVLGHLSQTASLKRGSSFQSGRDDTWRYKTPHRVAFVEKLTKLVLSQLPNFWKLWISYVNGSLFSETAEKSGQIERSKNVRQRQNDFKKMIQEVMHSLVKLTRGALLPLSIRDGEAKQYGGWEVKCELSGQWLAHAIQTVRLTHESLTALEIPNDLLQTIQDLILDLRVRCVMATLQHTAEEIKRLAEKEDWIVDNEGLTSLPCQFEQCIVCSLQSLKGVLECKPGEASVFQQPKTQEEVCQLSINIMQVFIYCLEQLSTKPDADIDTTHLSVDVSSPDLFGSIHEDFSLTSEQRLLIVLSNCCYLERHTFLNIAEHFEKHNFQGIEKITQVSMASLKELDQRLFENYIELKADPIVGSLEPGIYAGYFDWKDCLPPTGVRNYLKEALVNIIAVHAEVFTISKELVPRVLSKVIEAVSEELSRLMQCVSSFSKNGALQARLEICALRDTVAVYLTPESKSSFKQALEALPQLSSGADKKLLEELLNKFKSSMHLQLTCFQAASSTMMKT
UniProt Q16134: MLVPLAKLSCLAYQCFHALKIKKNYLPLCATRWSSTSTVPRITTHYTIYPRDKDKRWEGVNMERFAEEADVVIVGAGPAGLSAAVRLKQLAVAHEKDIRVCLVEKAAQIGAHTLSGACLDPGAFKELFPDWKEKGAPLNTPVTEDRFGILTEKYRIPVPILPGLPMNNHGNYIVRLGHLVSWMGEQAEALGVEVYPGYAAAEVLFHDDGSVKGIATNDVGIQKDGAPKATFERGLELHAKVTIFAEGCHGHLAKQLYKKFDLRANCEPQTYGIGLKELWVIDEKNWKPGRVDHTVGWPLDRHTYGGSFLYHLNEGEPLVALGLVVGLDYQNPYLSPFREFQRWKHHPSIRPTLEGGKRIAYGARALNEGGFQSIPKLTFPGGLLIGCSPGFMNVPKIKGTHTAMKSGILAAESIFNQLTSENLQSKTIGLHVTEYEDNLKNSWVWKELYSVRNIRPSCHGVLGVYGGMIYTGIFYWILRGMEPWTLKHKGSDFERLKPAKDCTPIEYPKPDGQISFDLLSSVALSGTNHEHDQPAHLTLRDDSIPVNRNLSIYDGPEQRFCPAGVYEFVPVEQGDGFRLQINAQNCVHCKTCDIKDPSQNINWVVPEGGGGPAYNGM
UniProt Q9NZB2: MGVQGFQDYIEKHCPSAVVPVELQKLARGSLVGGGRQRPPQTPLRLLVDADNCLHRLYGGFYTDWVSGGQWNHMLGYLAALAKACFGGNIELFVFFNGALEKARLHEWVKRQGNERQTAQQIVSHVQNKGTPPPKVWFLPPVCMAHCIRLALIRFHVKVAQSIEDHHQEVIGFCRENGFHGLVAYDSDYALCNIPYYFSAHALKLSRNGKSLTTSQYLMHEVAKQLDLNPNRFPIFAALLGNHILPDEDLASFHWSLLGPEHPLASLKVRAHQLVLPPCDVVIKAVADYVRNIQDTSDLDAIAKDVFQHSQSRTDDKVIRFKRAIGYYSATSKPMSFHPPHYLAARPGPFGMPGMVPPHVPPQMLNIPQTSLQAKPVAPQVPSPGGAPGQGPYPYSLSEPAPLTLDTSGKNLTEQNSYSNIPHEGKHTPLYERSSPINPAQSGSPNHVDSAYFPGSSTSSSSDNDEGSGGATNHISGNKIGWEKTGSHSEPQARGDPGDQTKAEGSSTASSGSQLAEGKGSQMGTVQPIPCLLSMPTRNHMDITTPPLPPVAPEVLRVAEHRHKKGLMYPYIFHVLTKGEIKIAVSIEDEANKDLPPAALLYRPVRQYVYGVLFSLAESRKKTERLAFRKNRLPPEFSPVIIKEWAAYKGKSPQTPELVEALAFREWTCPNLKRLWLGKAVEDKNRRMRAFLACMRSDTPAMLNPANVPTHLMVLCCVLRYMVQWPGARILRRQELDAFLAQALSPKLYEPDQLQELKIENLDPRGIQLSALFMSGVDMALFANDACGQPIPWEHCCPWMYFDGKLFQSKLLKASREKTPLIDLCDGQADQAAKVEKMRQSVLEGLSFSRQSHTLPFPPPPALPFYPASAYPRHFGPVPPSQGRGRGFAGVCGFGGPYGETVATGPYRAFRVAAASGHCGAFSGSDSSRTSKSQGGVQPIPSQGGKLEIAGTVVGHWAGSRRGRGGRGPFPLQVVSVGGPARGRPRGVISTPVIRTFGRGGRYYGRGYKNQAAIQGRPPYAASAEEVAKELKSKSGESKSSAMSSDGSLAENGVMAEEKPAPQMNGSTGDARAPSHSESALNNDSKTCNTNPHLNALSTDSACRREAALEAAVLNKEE
UniProt Q6SJ93: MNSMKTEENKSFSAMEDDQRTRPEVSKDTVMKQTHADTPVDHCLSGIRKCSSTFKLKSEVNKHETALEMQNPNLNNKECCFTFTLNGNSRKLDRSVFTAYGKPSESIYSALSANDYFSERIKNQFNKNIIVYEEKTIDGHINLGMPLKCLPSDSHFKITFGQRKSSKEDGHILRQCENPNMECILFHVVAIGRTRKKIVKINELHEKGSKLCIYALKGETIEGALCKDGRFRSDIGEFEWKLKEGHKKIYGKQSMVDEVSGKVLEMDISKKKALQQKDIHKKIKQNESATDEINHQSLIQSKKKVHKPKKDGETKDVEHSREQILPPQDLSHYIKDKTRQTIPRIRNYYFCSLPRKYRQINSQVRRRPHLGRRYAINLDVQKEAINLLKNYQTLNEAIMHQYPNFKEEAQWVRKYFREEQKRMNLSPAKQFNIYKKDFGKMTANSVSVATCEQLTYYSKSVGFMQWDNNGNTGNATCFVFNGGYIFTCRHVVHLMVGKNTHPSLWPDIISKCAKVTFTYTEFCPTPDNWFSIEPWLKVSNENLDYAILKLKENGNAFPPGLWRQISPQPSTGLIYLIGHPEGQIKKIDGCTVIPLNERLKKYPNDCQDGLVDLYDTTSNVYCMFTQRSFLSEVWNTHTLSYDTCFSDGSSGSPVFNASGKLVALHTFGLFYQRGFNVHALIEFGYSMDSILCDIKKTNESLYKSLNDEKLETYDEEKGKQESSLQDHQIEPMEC
UniProt Q15910, whole entry, looked up: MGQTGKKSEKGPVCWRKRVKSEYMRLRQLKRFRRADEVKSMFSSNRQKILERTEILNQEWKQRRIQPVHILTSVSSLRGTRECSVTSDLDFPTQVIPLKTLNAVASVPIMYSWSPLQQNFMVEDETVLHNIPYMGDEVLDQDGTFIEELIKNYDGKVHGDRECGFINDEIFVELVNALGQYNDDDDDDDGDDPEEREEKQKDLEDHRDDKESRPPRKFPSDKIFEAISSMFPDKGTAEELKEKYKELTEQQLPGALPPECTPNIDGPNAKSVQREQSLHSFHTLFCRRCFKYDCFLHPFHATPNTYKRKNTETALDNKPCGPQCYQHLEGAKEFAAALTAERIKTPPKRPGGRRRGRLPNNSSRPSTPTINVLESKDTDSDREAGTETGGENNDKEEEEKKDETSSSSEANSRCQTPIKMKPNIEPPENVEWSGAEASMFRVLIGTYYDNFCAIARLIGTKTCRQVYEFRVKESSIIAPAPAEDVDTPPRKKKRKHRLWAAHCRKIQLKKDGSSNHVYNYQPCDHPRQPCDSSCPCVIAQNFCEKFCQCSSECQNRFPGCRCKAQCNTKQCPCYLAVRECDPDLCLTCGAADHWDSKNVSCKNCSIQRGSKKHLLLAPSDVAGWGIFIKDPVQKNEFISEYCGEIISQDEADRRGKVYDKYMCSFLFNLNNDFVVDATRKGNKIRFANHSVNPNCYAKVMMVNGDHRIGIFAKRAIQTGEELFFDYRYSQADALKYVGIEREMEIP

Compound in the test: CC1Cc2ccccc2N1C(=O)C1CCCN(C1)C(=O)CCl (mixture of isomers) [TRIM25 ligand 11 (diastereomer mixture)]
In words: probe-labelled cysteine peptide fold change vs DMSO (competition) (log2 fold change); higher = less target engagement (more negative = stronger competition). Particulars: THP-1, incubation time: 4 h.

This is one part of the list.
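Further: competitive chemoproteomic profiling in live THP-1 cells with an iodoacetamide desthiobiotin (IA-DTB) probe, comparing probe-labelled peptide intensities in compound-treated cells against DMSO-treated controls.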

For the target “EXOC6_Q8TAG9_28_ILQEIESTDTACVGPTLR (UniProt Q8TAG9)”, the “probe-labelled cysteine peptide fold change” value runs as follows: (10 µM) -0.0571; (50 µM) -0.0118.
For “FABP5_Q01469_43_KMGAMAKPDCIITCDGK (UniProt Q01469)”, the “probe-labelled cysteine peptide fold change” value by setting is: (10 µM) -0.257; (50 µM) -0.212.
Regarding “ERP44_Q9BS26_301_GTINFLHADCDK (UniProt Q9BS26)”, the “probe-labelled cysteine peptide fold change” value runs as follows: (10 µM) 0.0266; (50 µM) 0.00902.
In the case of “ETV6_P41212_8_SETPAQCSIK (UniProt P41212)”, the “probe-labelled cysteine peptide fold change” value was 0.0671 (10 µM) and -0.18 (50 µM).
“ETFB_P38117_42_HSMNPFCEIAVEEAVR (UniProt P38117)”: the “probe-labelled cysteine peptide fold change” value by setting is: (10 µM) 0.00576; (50 µM) -0.0353.
Turning to “ESD_P10768_45_CPALYWLSGLTCTEQNFISK (UniProt P10768)”, the “probe-labelled cysteine peptide fold change” value was -0.0956 (10 µM) and -0.154 (50 µM).
With “FABP5_Q01469_43_MGAMAKPDCIITCDGK (UniProt Q01469)”, the “probe-labelled cysteine peptide fold change” value runs as follows: (10 µM) -0.0792; (50 µM) -0.131.
Consider “FAF2_Q96CS3_189_FLLVYLHGDDHQDSDEFCR (UniProt Q96CS3)”, for which the “probe-labelled cysteine peptide fold change” value by setting is: (10 µM) -0.0133; (50 µM) -0.0259.
For “F13A1_P00488_410_CGPASVQAIK (UniProt P00488)” the same measures were 0.168 and 0.101.
With “FAF2_Q96CS3_211_MLFWACSTNKPEGYR (UniProt Q96CS3)”, the “probe-labelled cysteine peptide fold change” value (10 µM) was -0.143 and the “probe-labelled cysteine peptide fold change” value (50 µM) was -0.033.
As to “ERGIC3_Q9Y282_159_CCNTCEDVR (UniProt Q9Y282)”, the “probe-labelled cysteine peptide fold change” value was -0.23 (10 µM) and 0.238 (50 µM).
For “FAM120B_Q96EK7_392_QEVPTCTGPESR (UniProt Q96EK7)” the same measures were -0.209 and -0.192.
Regarding “F11R_Q9Y624_50_LSCAYSGFSSPR (UniProt Q9Y624)”, the “probe-labelled cysteine peptide fold change” value runs as follows: (10 µM) -0.0813; (50 µM) 0.149.
Regarding “EXOSC7_Q15024_85_PNEGYLEFFVDCSASATPEFEGR (UniProt Q15024)”, the “probe-labelled cysteine peptide fold change” value reads like this: (10 µM) 0.527; (50 µM) 0.0488.
As to “EXOSC10_Q01780_555_IAEELPKEPQGIIACCNPVPPLVR (UniProt Q01780)”, the “probe-labelled cysteine peptide fold change” value is -0.0902 (10 µM) and -0.263 (50 µM).
As for “FAM120B_Q96EK7_380_QEVPMCSDPEPR (UniProt Q96EK7)”, the “probe-labelled cysteine peptide fold change” value (10 µM) is -0.00812 and the “probe-labelled cysteine peptide fold change” value (50 µM) is -0.329.
Turning to “ERCC6L_Q2NKX8_356_NPDVDAICEMPSLSR (UniProt Q2NKX8)”, the “probe-labelled cysteine peptide fold change” value is, setting by setting: (10 µM) -0.0361; (50 µM) -0.23.
As to “EXOSC9_Q06265_232_HREICTIQSSGGIMLLK (UniProt Q06265)”, the “probe-labelled cysteine peptide fold change” value reads like this: (10 µM) -0.164; (50 µM) -0.0657.
Turning to “EXOC2_Q96KP1_586_CVMATLQHTAEEIKR (UniProt Q96KP1)”, the “probe-labelled cysteine peptide fold change” value is, setting by setting: (10 µM) 0.162; (50 µM) 0.257.
For “ETFDH_Q16134_248_VTIFAEGCHGHLAK (UniProt Q16134)” the same measures were 0.0429 and 0.154.
For “EXOSC6_Q5RKV6_117_APPGGCEER (UniProt Q5RKV6)” the same measures were -0.115 and -0.185.
For “FAM120A_Q9NZB2_531_GSQMGTVQPIPCLLSMPTR (UniProt Q9NZB2)” the same measures were -0.179 and -0.199.
With “FAM102B_Q5T8I3_254_RNTSVGSTSTGVESILEPCDEIEQK (UniProt Q5T8I3)”, the “probe-labelled cysteine peptide fold change” value runs as follows: (10 µM) -0.0605; (50 µM) -0.127.
Turning to “ERO1A_Q96HE7_94_RPCPFWNDISQCGR (UniProt Q96HE7)”, the “probe-labelled cysteine peptide fold change” value by setting is: (10 µM) 0.149; (50 µM) 0.12.
With “FABP5_Q01469_120+127_LVVECVMNNVTCTR (UniProt Q01469)”, the “probe-labelled cysteine peptide fold change” value by setting is: (10 µM) 0.0776; (50 µM) 0.0117.
As to “ESCO2_Q56NI9_263_CLVLEEK (UniProt Q56NI9)”, the “probe-labelled cysteine peptide fold change” value was -0.0573 (10 µM) and -0.155 (50 µM).
Take “FAM120A_Q9NZB2_53_LLVDADNCLHR (UniProt Q9NZB2)”: the “probe-labelled cysteine peptide fold change” value (10 µM) stood at 0.146 and the “probe-labelled cysteine peptide fold change” value (50 µM) was 0.147.
For the target “ERLIN2_O94905_262_AKADAECYTAMK (UniProt O94905)”, the “probe-labelled cysteine peptide fold change” value (10 µM) is -0.107 and the “probe-labelled cysteine peptide fold change” value (50 µM) was -0.249.
Turning to “EXOC7_Q9UPT5_83_TLSCLDHVISYYHVASDTEK (UniProt Q9UPT5)”, the “probe-labelled cysteine peptide fold change” value by setting is: (10 µM) 0.0152; (50 µM) -0.177.
Turning to “ETFB_P38117_66_EVIAVSCGPAQCQETIR (UniProt P38117)”, the “probe-labelled cysteine peptide fold change” value reads like this: (10 µM) -0.0186; (50 µM) 0.0282.
Regarding “ERLEC1_Q96DZ1_113_QSSCSYR (UniProt Q96DZ1)”, the “probe-labelled cysteine peptide fold change” value amounted to 0.0884 (10 µM) and 0.179 (50 µM).
Turning to “EXOC2_Q96KP1_388_WILQLMHSCK (UniProt Q96KP1)”, the “probe-labelled cysteine peptide fold change” value runs as follows: (10 µM) -0.204; (50 µM) -0.28.
“FABP5_Q01469_87_KTQTVCNFTDGALVQHQEWDGK (UniProt Q01469)”: the “probe-labelled cysteine peptide fold change” value was -0.236 (10 µM) and -0.168 (50 µM).
For the target ESD_P10768_11_CFGGLQK (UniProt P10768), the “probe-labelled cysteine peptide fold change” value reads like this: (10 µM) -0.0267; (50 µM) -0.0187.
On to “ERCC2_P18074_491_VCLCPMIIGR (UniProt P18074)”, for which the “probe-labelled cysteine peptide fold change” value (10 µM) is -0.29 and the “probe-labelled cysteine peptide fold change” value (50 µM) was -0.0667.
On to “FAM111B_Q6SJ93_212_LCIYALK (UniProt Q6SJ93)”, for which the “probe-labelled cysteine peptide fold change” value (10 µM) is -0.05 and the “probe-labelled cysteine peptide fold change” value (50 µM) was -0.0141.
For “EXOC5_O00471_194_YHDLECQLIQEFTSAQR (UniProt O00471)” the same measures were 0.139 and 0.157.
As to “EZH2_Q15910_294_YDCFLHPFHATPNTYKR (UniProt Q15910)”, the “probe-labelled cysteine peptide fold change” value is -0.0687 (10 µM) and -0.0746 (50 µM).
Regarding “EXD2_Q9NVH0_202_NNLLCNGLSLK (UniProt Q9NVH0)”, the “probe-labelled cysteine peptide fold change” value runs as follows: (10 µM) 0.113; (50 µM) -0.0313.
In the case of “EZH2_Q15910_83_ECSVTSDLDFPTQVIPLK (UniProt Q15910)”, the “probe-labelled cysteine peptide fold change” value reads like this: (10 µM) 0.107; (50 µM) 0.243.
“EZH2_Q15910_695_FANHSVNPNCYAK (UniProt Q15910)”: the “probe-labelled cysteine peptide fold change” value came out at 0.0317 (10 µM) and 0.038 (50 µM).
Regarding “FAM120C_Q9NX05_745_AFLACMK (UniProt Q9NX05)”, the “probe-labelled cysteine peptide fold change” value is -0.126 (10 µM) and -0.00967 (50 µM).
